Laboratory results as given in the supplement of paper PMC8728848.
The other results are listed elsewhere or left out.

Tests used:
Test in all cases: glycan array binding signal (z-score within array); higher = stronger binding
Details in all cases: glycan notation: IUPAC condensed, linker removed
[1] = target: Neu5Ac(a2-3)Gal(b1-4)GlcNAc(b1-2)[Neu5Ac(a2-3)Gal(b1-4)GlcNAc(b1-6)]Man(a1-6)[Neu5Ac(a2-3)Gal(b1-4)GlcNAc(b1-2)Man(a1-3)]Man(b1-4)GlcNAc(b1-4)GlcNAc
How it was run: (§1)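 Glycan array data came from 3228 arrays in the Consortium for Functional Glycomics database, and only arrays with an available protein sequence were kept. Glycan names were put into IUPAC-condensed notation, and columns mapping to the same glycan were averaged. The binding signal is a within-array Z-score, averaged across arrays of one protein sequence run at different concentrations or buffers and across linkers. A negative Z-score can be read as non-binding.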

[2] = target: Neu5Ac(a2-3)Gal(b1-4)GlcNAc(b1-2)[Neu5Ac(a2-3)Gal(b1-4)GlcNAc(b1-6)]Man(a1-6)[Neu5Ac(a2-3)Gal(b1-4)GlcNAc(b1-2)Man(a1-3)][GlcNAc(b1-4)]Man(b1-4)GlcNAc(b1-4)GlcNAc
How it was run: as §1

[3] = target: Neu5Ac(a2-3)Gal(b1-4)GlcNAc(b1-3)Gal
How it was run: as §1

[4] = target: Neu5Ac(a2-3)Gal(b1-4)GlcNAc(b1-3)Gal(b1-3)GlcNAc
How it was run: as §1

[5] = target: Neu5Ac(a2-3)Gal(b1-4)GlcNAc(b1-3)Gal(b1-4)GlcNAc
How it was run: as §1

[6] = target: Neu5Ac(a2-3)Gal(b1-4)GlcNAc(b1-3)Gal(b1-4)GlcNAc(b1-2)Man(a1-3)[Neu5Ac(a2-3)Gal(b1-4)GlcNAc(b1-3)Gal(b1-4)GlcNAc(b1-2)Man(a1-6)]Man(b1-4)GlcNAc(b1-4)GlcNAc
How it was run: as §1

[7] = target: Neu5Ac(a2-3)Gal(b1-4)GlcNAc(b1-3)Gal(b1-4)GlcNAc(b1-3)Gal(b1-4)GlcNAc
How it was run: as §1

[8] = target: Neu5Ac(a2-3)Gal(b1-4)GlcNAc(b1-3)Gal(b1-4)GlcNAc(b1-3)Gal(b1-4)GlcNAc(b1-2)Man(a1-3)[Neu5Ac(a2-3)Gal(b1-4)GlcNAc(b1-3)Gal(b1-4)GlcNAc(b1-3)Gal(b1-4)GlcNAc(b1-2)Man(a1-6)]GalNAc
How it was run: as §1

[9] = target: Neu5Ac(a2-3)Gal(b1-4)GlcNAc(b1-3)Gal(b1-4)GlcNAc(b1-3)GalNAc
How it was run: as §1

[10] = target: Neu5Ac(a2-3)Gal(b1-4)GlcNAc(b1-3)Gal(b1-4)GlcNAc(b1-3)[Neu5Ac(a2-3)Gal(b1-4)GlcNAc(b1-3)Gal(b1-4)GlcNAc(b1-6)]GalNAc
How it was run: as §1

[11] = target: Neu5Ac(a2-3)Gal(b1-4)GlcNAc(b1-3)Gal(b1-4)GlcNAc(b1-6)[Gal(b1-3)]GalNAc
How it was run: as §1

[12] = target: Neu5Ac(a2-3)Gal(b1-4)GlcNAc(b1-3)Gal(b1-4)[Fuc(a1-3)]GlcNAc
How it was run: as §1

[13] = target: Neu5Ac(a2-3)Gal(b1-4)GlcNAc(b1-3)GalNAc
How it was run: as §1

[14] = target: Neu5Ac(a2-3)Gal(b1-4)GlcNAc(b1-3)[Neu5Ac(a2-3)Gal(b1-4)GlcNAc(b1-6)]GalNAc
How it was run: as §1

[15] = target: Neu5Ac(a2-3)Gal(b1-4)GlcNAc(b1-6)GalNAc
How it was run: as §1

[16] = target: Neu5Ac(a2-3)Gal(b1-4)GlcNAc(b1-6)[Gal(b1-3)]GalNAc
How it was run: as §1

[17] = target: Neu5Ac(a2-3)Gal(b1-4)GlcNAc(b1-6)[Neu5Ac(a2-3)Gal(b1-3)]GalNAc
How it was run: as §1

[18] = target: Neu5Ac(a2-3)Gal(b1-4)GlcNAc6S
How it was run: as §1

[19] = target: Neu5Ac(a2-3)Gal(b1-4)[Fuc(a1-3)]GlcNAc
How it was run: as §1

[20] = target: Neu5Ac(a2-3)Gal(b1-4)[Fuc(a1-3)]GlcNAc(b1-2)Man
How it was run: as §1

[21] = target: Neu5Ac(a2-3)Gal(b1-4)[Fuc(a1-3)]GlcNAc(b1-3)Gal
How it was run: as §1

[22] = target: Neu5Ac(a2-3)Gal(b1-4)[Fuc(a1-3)]GlcNAc(b1-3)Gal(b1-4)GlcNAc
How it was run: as §1

[23] = target: Neu5Ac(a2-3)Gal(b1-4)[Fuc(a1-3)]GlcNAc(b1-3)Gal(b1-4)[Fuc(a1-3)]GlcNAc(b1-3)Gal(b1-4)[Fuc(a1-3)]GlcNAc
How it was run: as §1

B1: Gal 10 (Homo sapiens), Q05315 (protein)
chain: MSLLPVPYTEAASLSTGSTVTIKGRPLVCFLNEPYLQVDFHTEMKEESDIVFHFQVCFGRRVVMNSREYGAWKQQVESKNMPFQDGQEFELSISVLPDKYQVMVNGQSSYTFDHRIKPEAVKMVQVWRDISLTKFNVSYLKR
[1]
  glycan array binding signal (z-score): 0.669
[2]
  glycan array binding signal (z-score): -0.743
[3]
  glycan array binding signal (z-score): -0.51
[4]
  glycan array binding signal (z-score): -0.304
[5]
  glycan array binding signal (z-score): -0.765
[6]
  glycan array binding signal (z-score): -0.396
[7]
  glycan array binding signal (z-score): 0.081
[8]
  glycan array binding signal (z-score): -0.403
[9]
  glycan array binding signal (z-score): 2.09
[10]
  glycan array binding signal (z-score): 0.429
[11]
  glycan array binding signal (z-score): -0.212
[12]
  glycan array binding signal (z-score): -0.727
[13]
  glycan array binding signal (z-score): 0.39
[14]
  glycan array binding signal (z-score): -0.154
[15]
  glycan array binding signal (z-score): 0.918
[16]
  glycan array binding signal (z-score): 0.181
[17]
  glycan array binding signal (z-score): -0.263
[18]
  glycan array binding signal (z-score): -0.606
[19]
  glycan array binding signal (z-score): -0.456
[20]
  glycan array binding signal (z-score): 2.57
[21]
  glycan array binding signal (z-score): -0.034
[22]
  glycan array binding signal (z-score): -0.167
[23]
  glycan array binding signal (z-score): 0.844
